Results from paper PMC12617525.
Results are given in words; binding and its absence hold for the method and conditions named. Binding seen in cells or lysates may run through a third protein. Some results given as binding are weak or reduced against the parent protein; the word gives no strength.

Amino acid sequences for entries named in this document (tags omitted). Residues count along the entry.
UniProt Q8R493, residues 21-495: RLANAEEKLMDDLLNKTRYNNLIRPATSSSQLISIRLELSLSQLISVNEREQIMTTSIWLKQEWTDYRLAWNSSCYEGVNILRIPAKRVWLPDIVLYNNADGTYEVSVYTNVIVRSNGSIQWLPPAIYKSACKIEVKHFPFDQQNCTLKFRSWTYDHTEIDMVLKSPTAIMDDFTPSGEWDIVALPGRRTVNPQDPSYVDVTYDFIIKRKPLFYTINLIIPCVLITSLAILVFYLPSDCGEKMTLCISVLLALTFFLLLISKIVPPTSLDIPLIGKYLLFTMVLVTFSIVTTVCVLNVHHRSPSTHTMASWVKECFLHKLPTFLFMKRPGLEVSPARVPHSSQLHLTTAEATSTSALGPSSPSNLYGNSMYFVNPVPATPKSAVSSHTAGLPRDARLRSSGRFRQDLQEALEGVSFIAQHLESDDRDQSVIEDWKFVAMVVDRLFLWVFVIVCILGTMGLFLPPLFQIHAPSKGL

Biological target: T1, DJ-1 (Park7) (mouse (endogenous in mouse brain)) (UniProt Q99LX0)
T1 sequence: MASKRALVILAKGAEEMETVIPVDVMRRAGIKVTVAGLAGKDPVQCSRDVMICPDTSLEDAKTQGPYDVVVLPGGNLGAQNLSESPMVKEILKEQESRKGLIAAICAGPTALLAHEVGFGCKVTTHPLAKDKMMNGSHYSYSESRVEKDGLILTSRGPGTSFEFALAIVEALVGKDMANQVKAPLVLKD
Assay: co-IP; 500 ug mitochondrial lysate of mouse brain (WT, CHCHD2 T61I and CHCHD2 KO mice) in 1 ml RIPA buffer (150 mM NaCl, 50 mM tris-HCl pH 7.5, 0.1% SDS, 1% Na deoxycholate, 1% NP-40, 1 mM EDTA) with 3 ul antibody, 4°C; uMACS Protein A or G microbeads; eluates analysed by immunoblotting

Chrnb4 (from UniProt Q8R493 21-495) was tested, and the binding was “binds”.
